The record followed here is patent publication US20100255026A1.

The chains behind the UniProt entries cited, without tags or fusion partners. Where a name states a change or a piece, a line headed by the entry shows the natural chain unless it says otherwise. Residues count along the entry.
UniProt P94217: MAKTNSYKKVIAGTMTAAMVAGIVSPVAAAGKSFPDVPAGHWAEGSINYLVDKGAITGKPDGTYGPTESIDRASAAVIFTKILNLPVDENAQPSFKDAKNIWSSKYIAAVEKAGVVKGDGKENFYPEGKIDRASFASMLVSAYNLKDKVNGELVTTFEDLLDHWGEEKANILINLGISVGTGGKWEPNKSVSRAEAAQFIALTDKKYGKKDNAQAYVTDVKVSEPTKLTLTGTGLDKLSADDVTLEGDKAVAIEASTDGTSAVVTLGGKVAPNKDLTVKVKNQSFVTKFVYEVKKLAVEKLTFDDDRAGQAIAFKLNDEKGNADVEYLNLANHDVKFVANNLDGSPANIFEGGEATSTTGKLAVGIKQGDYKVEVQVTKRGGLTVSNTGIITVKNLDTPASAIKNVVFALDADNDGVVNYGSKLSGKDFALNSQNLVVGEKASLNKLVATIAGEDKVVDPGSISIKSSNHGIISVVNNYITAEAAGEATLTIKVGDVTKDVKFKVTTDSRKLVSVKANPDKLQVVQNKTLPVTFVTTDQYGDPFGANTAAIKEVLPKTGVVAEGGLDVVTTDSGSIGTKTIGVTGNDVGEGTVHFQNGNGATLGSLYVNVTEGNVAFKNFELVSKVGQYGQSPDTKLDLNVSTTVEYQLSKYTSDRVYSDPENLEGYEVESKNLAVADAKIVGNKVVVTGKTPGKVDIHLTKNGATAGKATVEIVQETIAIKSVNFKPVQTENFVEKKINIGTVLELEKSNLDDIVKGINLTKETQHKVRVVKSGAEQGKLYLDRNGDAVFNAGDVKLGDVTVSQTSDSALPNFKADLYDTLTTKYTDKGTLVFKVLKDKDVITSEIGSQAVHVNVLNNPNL
UniProt P05046, residues 33-285: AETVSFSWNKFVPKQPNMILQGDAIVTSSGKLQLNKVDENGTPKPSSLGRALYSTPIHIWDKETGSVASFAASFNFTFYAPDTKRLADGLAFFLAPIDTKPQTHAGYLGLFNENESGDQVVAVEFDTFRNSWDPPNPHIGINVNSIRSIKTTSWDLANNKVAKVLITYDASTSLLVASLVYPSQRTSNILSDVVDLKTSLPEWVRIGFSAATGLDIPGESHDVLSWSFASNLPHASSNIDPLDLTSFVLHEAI

This assay has as its target B. anthracis S-layer protein EA1 (Bacillus anthracis) (UniProt P94217). The experiment in a line: lectin column purification of a urea extract of spores, SDS-PAGE (FIG. 3).

No constants are given. Whether binding was seen depends on the method and setting. Some entries that bind do so weakly or less than the wild type.

In the case of “SBA lectin bound to agrose beads (from UniProt P05046 33-285)”, the binding entry is given as “binds”.
